These are yes or no findings as the source states them, for the method shown. In cells and extracts the contact can be indirect. Some entries that bind do so weakly or less than the wild type. Sequences can lack the tags named with a protein.
Molecular target: T1, S. cerevisiae Scc1 (wild type, epitope-tagged) (S. cerevisiae) (UniProt Q12158)
T1 sequence: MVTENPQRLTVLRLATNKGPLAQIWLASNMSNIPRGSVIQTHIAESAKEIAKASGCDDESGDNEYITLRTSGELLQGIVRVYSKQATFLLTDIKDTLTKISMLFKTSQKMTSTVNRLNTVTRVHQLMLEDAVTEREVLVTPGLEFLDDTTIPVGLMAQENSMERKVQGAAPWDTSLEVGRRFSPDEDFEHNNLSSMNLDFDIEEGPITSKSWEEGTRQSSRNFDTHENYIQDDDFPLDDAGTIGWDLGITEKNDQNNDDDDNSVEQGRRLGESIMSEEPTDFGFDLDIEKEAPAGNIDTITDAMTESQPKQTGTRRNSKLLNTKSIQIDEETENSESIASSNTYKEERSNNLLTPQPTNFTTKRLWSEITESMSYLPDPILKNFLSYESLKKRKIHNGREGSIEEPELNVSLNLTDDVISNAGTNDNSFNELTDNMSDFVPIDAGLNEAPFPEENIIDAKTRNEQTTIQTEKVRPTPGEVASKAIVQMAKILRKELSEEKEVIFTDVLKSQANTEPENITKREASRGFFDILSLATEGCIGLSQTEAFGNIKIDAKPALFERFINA
Assay: co-IP; epitope-tagged S. cerevisiae strains, proteins expressed from endogenous promoters; IP of Scc1 with HA epitope-directed antibodies, PK epitopes detected by western blotting

B1: S. cerevisiae Pds5 (wild type, epitope-tagged) (protein, UniProt Q04264 1-1277)
chain: MAKGAVTKLKFNSPIISTSDQLISTNELLDRLKALHEELASLDQDNTDLTGLDKYRDALVSRKLLKHKDVGIRAFTACCLSDILRLYAPDAPYTDAQLTDIFKLVLSQFEQLGDQENGYHIQQTYLITKLLEYRSIVLLADLPSSNNLLIELFHIFYDPNKSFPARLFNVIGGILGEVISEFDSVPLEVLRLIFNKFLTYNPNEIPEGLNVTSDCGYEVSLILCDTYSNRMSRHLTKYYSEIIHEATNDDNNSRLLTVVVKLHKLVLRLWETVPELINAVIGFIYHELSSENELFRKEATKLIGQILTSYSDLNFVSTHSDTFKAWISKIADISPDVRVEWTESIPQIIATREDISKELNQALAKTFIDSDPRVRRTSVMIFNKVPVTEIWKNITNKAIYTSLLHLAREKHKEVRELCINTMAKFYSNSLNEIERTYQNKEIWEIIDTIPSTLYNLYYINDLNINEQVDSVIFEYLLPFEPDNDKRVHRLLTVLSHFDKKAFTSFFAFNARQIKISFAISKYIDFSKFLNNQESMSSSQGPIVMNKYNQTLQWLASGLSDSTKAIDALETIKQFNDERIFYLLNACVTNDIPFLTFKNCYNELVSKLQTPGLFKKYNISTGASIMPRDIAKVIQILLFRASPIIYNVSNISVLLNLSNNSDAKQLDLKRRILDDISKVNPTLFKDQIRTLKTIIKDLDDPDAEKNDNLSLEEALKTLYKASKTLKDQVDFDDTFFFTKLYDFAVESKPEITKYATKLIALSPKAEETLKKIKIRILPLDLQKDKYFTSHIIVLMEIFKKFPHVLNDDSTDIISYLIKEVLLSNQVVGDSKKEIDWVEDSLLSDTKYSAIGNKVFTLKLFTNKLRSIAPDVPRDELAESFTEKTMKLFFYLIASGGELISEFNKEFYPTPSNYQTKLRCVAGIQVLKLARISNLNNFIKPSDIIKLINLVEDESLPVRKTFLEQLKDYVANELISIKFLPLVFFTAYEPDVELKTTTKIWINFTFGLKSFKKGTIFERALPRLIHAIAHHPDIVGGLDSEGDAYLNALTTAIDYLLFYFDSIAAQENFSLLYYLSERVKNYQDKLVEDEIDEEEGPQKEEAPKKHRPYGQKMYIIGELSQMILLNLKEKKNWQHSAYPGKLNLPSDLFKPFATVQEAQLSFKTYIPESLTEKIQNNIKAKIGRILHTSQTQRQRLQKRLLAHENNESQKKKKKVHHARSQADDEEGDGDRESDSDDDSYSPSNKNETKKGHENIVMKKLRVRKEVDYKDDEDDDIEMT
For B1, the binding was “binds”.

From publication PMC4793087
